Measurements reported in PubChem BioAssay AID504791 (Drosophila RNAi Screening Center, 2011).

Assay: 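Genes of the fly required for silencing by miRNA, siRNA or endo-siRNA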 (primary screen)
Cells: Drosophila S2-derived reporter cells
Reagents: long dsRNA against Drosophila genes, about 150-250 ng dsRNA per well (siRNA assay); about 80-120 ng (miRNA assay)
Time to read-out: about 5 days (siRNA assay); about 4 days (miRNA assay)
Challenge: copper sulfate induction of reporters: 25 µM (siRNA assay); 200 mM stated (miRNA assay), 1-2 days before reading
Measured: 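Per-well ratio of Renilla over firefly light, expressed relative to that plate's average ratio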
Reading the numbers: siRNA reporter hit score: higher = 3 marks a strong hit with raised ratio; -3 a strong hit with lowered ratio
Active means: 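First-pass picks had plate-scaled ratios over 1.5 for the siRNA assay, over 1.6 for the miRNA assay, or under 0.6; two distinct dsRNAs had to score alike on retest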
The deposit covers about 23,000 reagents; this is a random part of those with a known target gene and a result. Over the whole deposit, 199 (0.86%) are marked active. 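Plate-scaled ratios behind the calls are not deposited; printed light signals are raw; many rows marked increased or decreased are still called inactive.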 A plus sign joins genes that one reagent is predicted to hit. Further read-outs or replicates are left out here.

| gene | DRSC id | siRNA reporter hit score | miRNA reporter change | stable assay Renilla, run 1 (luminescence) | activity call |
| --- | --- | --- | --- | --- | --- |
| mlt | DRSC06120 | – | – | 7957 | inactive |
| Acsl | DRSC07252 | – | – | 7710 | inactive |
| wg | DRSC03636 | – | – | 8079 | inactive |
| rictor | DRSC20071 | – | – | 5999 | inactive |
| CG16894 | DRSC06634 | – | – | 4796 | inactive |
| CG16894 | DRSC21785 | – | – | 9682 | inactive |
| Iyd | DRSC10614 | – | – | 5323 | inactive |
| Iyd | DRSC10615 | – | – | 5432 | inactive |
| Vps50 | DRSC06910 | – | – | 10030 | inactive |
| CG3652 | DRSC00624 | – | – | 7758 | inactive |
| CG3330 | DRSC15477 | – | – | 7806 | inactive |
| AGO1 | DRSC05912 | – | reporter ratio raised past the hit cutoff | 5932 | inactive |
| etaTry | DRSC07613 | – | – | 6343 | inactive |
| twf | DRSC15466 | – | – | 7959 | inactive |
| ox | DRSC07520 | – | – | 4943 | inactive |
| brp | DRSC06245 | – | – | 5447 | inactive |
| brp | DRSC06246 | – | – | 6552 | inactive |
| brp | DRSC06801 | – | – | 6287 | inactive |
| brp | DRSC21893 | – | – | 8299 | inactive |
| GluRIB + CG42509 (retired record) | DRSC10258 | – | – | 6219 | inactive |
| GluRIB + CG42509 (retired record) | DRSC11177 | – | – | 6663 | inactive |
| NLaz | DRSC21521 | – | – | 9808 | inactive |
| Jon25Bi | DRSC03434 | – | – | 6983 | inactive |
| Hsp110 | DRSC11186 | – | – | 10886 | inactive |
| HDAC6 | DRSC20252 | – | – | 9151 | inactive |
| grnd | DRSC02020 | – | – | 7426 | inactive |
| l(3)S110416 (retired record) | DRSC17094 | – | – | 9886 | inactive |
| Ten-m | DRSC11664 | 3 | – | 7602 | inactive |
| Ten-m | DRSC11882 | 3 | – | 7647 | inactive |
| amx | DRSC18736 | – | – | 5160 | inactive |
| Yp3 | DRSC20302 | – | – | 6258 | inactive |
| lqfR | DRSC14703 | – | – | 8647 | inactive |
| lqfR | DRSC14704 | – | – | 7941 | inactive |
| CG33306 | DRSC01899 | – | – | 7635 | inactive |
| Or45a | DRSC07487 | – | – | 5388 | inactive |
| tud | DRSC04719 | – | – | 8326 | inactive |
| CG15286 | DRSC01907 | – | – | 5999 | inactive |
| CG10907 | DRSC09804 | – | – | 7026 | inactive |
| CG5756 | DRSC06950 | – | – | 6527 | inactive |
| RN-tre | DRSC07521 | – | – | 4395 | inactive |
| Acp65Aa | DRSC09663 | – | – | 6883 | inactive |
| CG4306 | DRSC10409 | – | – | 7528 | inactive |
| Klp67A | DRSC11205 | – | – | 7610 | inactive |
| Arp53D | DRSC05923 | – | – | 6072 | inactive |
| cl | DRSC02118 | – | – | 1.81e5 | inactive |
| CG5539 | DRSC04510 | – | – | 7503 | inactive |
| CG30026 | DRSC05276 | – | – | 6276 | inactive |
| CG17684 | DRSC07724 | – | – | 6423 | inactive |
| CG17684 | DRSC21166 | – | – | 4907 | inactive |
| sigmar | DRSC04449 | – | – | 12014 | inactive |
| CG43894 | DRSC10123 | – | – | 6376 | inactive |
| CG12983 | DRSC11692 | – | – | 7407 | inactive |
| CG5783 | DRSC02894 | – | – | 8395 | inactive |
| pkm | DRSC19674 | – | – | 7327 | inactive |
| CG15306 | DRSC17993 | – | – | 5367 | inactive |
| CG15306 | DRSC18240 | – | – | 5096 | inactive |
| Rpn6 | DRSC07541 | – | – | 5016 | inactive |

As entered above:
Result of CG5539 [DRSC04510] in “stable assay Renilla, run 1 (luminescence)”: 7503
For “activity call”, Hsp110 [DRSC11186] reads inactive
CG4306 [DRSC10409], activity call → inactive
Or45a [DRSC07487], activity call = inactive
